Source: the supplement of paper PMC8728848
The list shows a part of the results.

What was measured:
Assay in all cases: glycan array binding signal (z-score within array); higher = stronger binding
Conditions in all cases: glycan notation: IUPAC condensed, linker removed
[1] = molecular target: Neu5Ac(a2-3)Gal(b1-4)[Fuc(a1-3)]GlcNAc(b1-3)Gal
In short: (§1)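 Glycan array data came from 3228 arrays in the Consortium for Functional Glycomics database, and only arrays with an available protein sequence were kept. Glycan names were put into IUPAC-condensed notation, and columns mapping to the same glycan were averaged. The binding signal is a within-array Z-score, averaged across arrays of one protein sequence run at different concentrations or buffers and across linkers. A negative Z-score can be read as non-binding.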

[2] = molecular target: Neu5Ac(a2-3)Gal(b1-4)[Fuc(a1-3)]GlcNAc(b1-3)Gal(b1-4)GlcNAc
In short: as §1

[3] = molecular target: Neu5Ac(a2-3)Gal(b1-4)[Fuc(a1-3)]GlcNAc(b1-3)Gal(b1-4)[Fuc(a1-3)]GlcNAc(b1-3)Gal(b1-4)[Fuc(a1-3)]GlcNAc
In short: as §1

[4] = molecular target: Neu5Ac(a2-3)Gal(b1-4)[Fuc(a1-3)]GlcNAc(b1-6)[Gal(b1-3)]GalNAc
In short: as §1

[5] = molecular target: Neu5Ac(a2-3)Gal(b1-4)[Fuc(a1-3)]GlcNAc6S
In short: as §1

[6] = molecular target: Neu5Ac(a2-3)Gal6S(b1-4)GlcNAc
In short: as §1

[7] = molecular target: Neu5Ac(a2-3)Gal6S(b1-4)[Fuc(a1-3)]GlcNAc
In short: as §1

[8] = molecular target: Neu5Ac(a2-3)GalNAc
In short: as §1

[9] = molecular target: Neu5Ac(a2-3)GalNAc(b1-4)GlcNAc
In short: as §1

[10] = molecular target: Neu5Ac(a2-3)[GalNAc(b1-4)]Gal(b1-4)Glc
In short: as §1

[11] = molecular target: Neu5Ac(a2-3)[GalNAc(b1-4)]Gal(b1-4)GlcNAc
In short: as §1

[12] = molecular target: Neu5Ac(a2-3)[Neu5Ac(a2-6)]GalNAc
In short: as §1

[13] = molecular target: Neu5Ac(a2-6)Gal
In short: as §1

[14] = molecular target: Neu5Ac(a2-6)Gal(b1-4)Glc
In short: as §1

[15] = molecular target: Neu5Ac(a2-6)Gal(b1-4)GlcNAc
In short: as §1

[16] = molecular target: Neu5Ac(a2-6)Gal(b1-4)GlcNAc(b1-2)Man(a1-3)[Gal(b1-4)GlcNAc(b1-2)Man(a1-6)]Man(b1-4)GlcNAc(b1-4)GlcNAc
In short: as §1

[17] = molecular target: Neu5Ac(a2-6)Gal(b1-4)GlcNAc(b1-2)Man(a1-3)[GlcNAc(b1-2)Man(a1-6)]Man(b1-4)GlcNAc(b1-4)GlcNAc
In short: as §1

[18] = molecular target: Neu5Ac(a2-6)Gal(b1-4)GlcNAc(b1-2)Man(a1-3)[GlcNAc(b1-2)Man(b1-4)GlcNAc(b1-2)Man(a1-6)]Man(b1-4)GlcNAc(b1-4)GlcNAc
In short: as §1

[19] = molecular target: Neu5Ac(a2-6)Gal(b1-4)GlcNAc(b1-2)Man(a1-3)[Neu5Ac(a2-6)Gal(b1-4)GlcNAc(b1-2)Man(a1-6)]Man(b1-4)GlcNAc(b1-4)GlcNAc
In short: as §1

[20] = molecular target: Neu5Ac(a2-6)Gal(b1-4)GlcNAc(b1-2)Man(a1-6)[Gal(b1-4)GlcNAc(b1-2)Man(a1-3)]Man(b1-4)GlcNAc(b1-4)GlcNAc
In short: as §1

[21] = molecular target: Neu5Ac(a2-6)Gal(b1-4)GlcNAc(b1-2)Man(a1-6)[GlcNAc(b1-2)Man(a1-3)]Man(b1-4)GlcNAc(b1-4)GlcNAc
In short: as §1

[22] = molecular target: Neu5Ac(a2-6)Gal(b1-4)GlcNAc(b1-3)Gal(b1-4)GlcNAc
In short: as §1

[23] = molecular target: Neu5Ac(a2-6)Gal(b1-4)GlcNAc(b1-3)Gal(b1-4)[Fuc(a1-3)]GlcNAc(b1-3)Gal(b1-4)[Fuc(a1-3)]GlcNAc
In short: as §1

[24] = molecular target: Neu5Ac(a2-6)Gal(b1-4)GlcNAc6S
In short: as §1

[25] = molecular target: Neu5Ac(a2-6)GalNAc
In short: as §1

[26] = molecular target: Neu5Ac(a2-6)GalNAc(b1-4)GlcNAc
In short: as §1

[27] = molecular target: Neu5Ac(a2-8)Neu5Ac
In short: as §1

[28] = molecular target: Neu5Ac(a2-8)Neu5Ac(a2-3)Gal(b1-4)Glc
In short: as §1

[29] = molecular target: Neu5Ac(a2-8)Neu5Ac(a2-3)[GalNAc(b1-4)]Gal(b1-4)Glc
In short: as §1

[30] = molecular target: Neu5Ac(a2-8)Neu5Ac(a2-8)Neu5Ac
In short: as §1

[31] = molecular target: Neu5Ac(a2-8)Neu5Ac(a2-8)Neu5Ac(a2-3)Gal(b1-4)Glc
In short: as §1

[32] = molecular target: Neu5Ac(a2-8)Neu5Ac(a2-8)Neu5Ac(a2-3)[GalNAc(b1-4)]Gal(b1-4)Glc
In short: as §1

[33] = molecular target: Neu5Ac(a2-8)Neu5Ac(a2-8)Neu5Ac(a2-8)Neu5Ac(a2-3)[GalNAc(b1-4)]Gal(b1-4)Glc
In short: as §1

[34] = molecular target: Neu5Ac(b2-6)Gal(b1-4)GlcNAc
In short: as §1

[35] = molecular target: Neu5Ac(b2-6)GalNAc
In short: as §1

[36] = molecular target: Neu5Ac9Ac(a2-6)Gal(b1-4)GlcNAc
In short: as §1

[37] = molecular target: Neu5Gc(a2-3)Gal(b1-3)GlcNAc
In short: as §1

[38] = molecular target: Neu5Gc(a2-3)Gal(b1-3)[Fuc(a1-4)]GlcNAc
In short: as §1

[39] = molecular target: Neu5Gc(a2-3)Gal(b1-4)Glc
In short: as §1

[40] = molecular target: Neu5Gc(a2-3)Gal(b1-4)GlcNAc
In short: as §1

[41] = molecular target: Neu5Gc(a2-3)Gal(b1-4)[Fuc(a1-3)]GlcNAc
In short: as §1

[42] = molecular target: Neu5Gc(a2-6)Gal(b1-4)GlcNAc
In short: as §1

[43] = molecular target: Neu5Gc(a2-6)GalNAc
In short: as §1

[44] = molecular target: Neu5Gc(b2-6)Gal(b1-4)GlcNAc
In short: as §1

B1: RfpC (Mycobacterium tuberculosum), O07747 (protein)
chain: MHHHHHHSSGRENLYFQGHMASKSAMAAGLVTASMSLSTAVAHAGPSPNWDAVAQCESGGNWAANTGNGKYGGLQFKPATWAAFGGVGNPAAASREQQIAVANRVLAEQGLDAWPTCGAASGLPIALWSKPAQGIKGS
glycan array binding signal (z-score) [1]: 1.29 | glycan array binding signal (z-score) [2]: 2.25 | glycan array binding signal (z-score) [3]: -0.798 | glycan array binding signal (z-score) [4]: 0.309 | glycan array binding signal (z-score) [5]: 1.29 | glycan array binding signal (z-score) [6]: -1.15 | glycan array binding signal (z-score) [7]: -0.738 | glycan array binding signal (z-score) [8]: 1.09 | glycan array binding signal (z-score) [9]: -0.081 | glycan array binding signal (z-score) [10]: -0.195 | glycan array binding signal (z-score) [11]: 0.75 | glycan array binding signal (z-score) [12]: 0.475 | glycan array binding signal (z-score) [13]: -0.409 | glycan array binding signal (z-score) [14]: 0.057 | glycan array binding signal (z-score) [15]: -0.595 | glycan array binding signal (z-score) [16]: -0.731 | glycan array binding signal (z-score) [17]: -0.288 | glycan array binding signal (z-score) [18]: -0.604 | glycan array binding signal (z-score) [19]: -0.031 | glycan array binding signal (z-score) [20]: 0.204 | glycan array binding signal (z-score) [21]: -0.953 | glycan array binding signal (z-score) [22]: -1.31 | glycan array binding signal (z-score) [23]: -0.135 | glycan array binding signal (z-score) [24]: -1.1 | glycan array binding signal (z-score) [25]: -1.24 | glycan array binding signal (z-score) [26]: -0.611 | glycan array binding signal (z-score) [27]: -0.588 | glycan array binding signal (z-score) [28]: -1.23 | glycan array binding signal (z-score) [29]: -0.901 | glycan array binding signal (z-score) [30]: -0.143 | glycan array binding signal (z-score) [31]: -0.861 | glycan array binding signal (z-score) [32]: 0.23 | glycan array binding signal (z-score) [33]: -0.839 | glycan array binding signal (z-score) [34]: -0.686 | glycan array binding signal (z-score) [35]: -0.487 | glycan array binding signal (z-score) [36]: 0.494 | glycan array binding signal (z-score) [37]: 1.21 | glycan array binding signal (z-score) [38]: -0.123 | glycan array binding signal (z-score) [39]: 1.61 | glycan array binding signal (z-score) [40]: -0.767 | glycan array binding signal (z-score) [41]: -1.35 | glycan array binding signal (z-score) [42]: -0.008 | glycan array binding signal (z-score) [43]: 1.8 | glycan array binding signal (z-score) [44]: 3.14
